No constants are given. Whether binding was seen depends on the method and setting. In cells and extracts the contact can be indirect. A yes stands for co-enrichment or nearness to the bait. Other partners may have been found.
Target: G protein-coupled receptor 56 (GPR56), overexpressed in cells used for immunoprecipitation and mass spectrometry (UniProt Q9Y653)
Test: affinity purification with mass spectrometry; immunoprecipitation from GPR56 overexpressing cells, silver staining and mass spectrum

Protein sequences, listed by entry. Tags and fused reporters are not part of them. Residues count along the entry.
UniProt Q9Y653, residues 26-693: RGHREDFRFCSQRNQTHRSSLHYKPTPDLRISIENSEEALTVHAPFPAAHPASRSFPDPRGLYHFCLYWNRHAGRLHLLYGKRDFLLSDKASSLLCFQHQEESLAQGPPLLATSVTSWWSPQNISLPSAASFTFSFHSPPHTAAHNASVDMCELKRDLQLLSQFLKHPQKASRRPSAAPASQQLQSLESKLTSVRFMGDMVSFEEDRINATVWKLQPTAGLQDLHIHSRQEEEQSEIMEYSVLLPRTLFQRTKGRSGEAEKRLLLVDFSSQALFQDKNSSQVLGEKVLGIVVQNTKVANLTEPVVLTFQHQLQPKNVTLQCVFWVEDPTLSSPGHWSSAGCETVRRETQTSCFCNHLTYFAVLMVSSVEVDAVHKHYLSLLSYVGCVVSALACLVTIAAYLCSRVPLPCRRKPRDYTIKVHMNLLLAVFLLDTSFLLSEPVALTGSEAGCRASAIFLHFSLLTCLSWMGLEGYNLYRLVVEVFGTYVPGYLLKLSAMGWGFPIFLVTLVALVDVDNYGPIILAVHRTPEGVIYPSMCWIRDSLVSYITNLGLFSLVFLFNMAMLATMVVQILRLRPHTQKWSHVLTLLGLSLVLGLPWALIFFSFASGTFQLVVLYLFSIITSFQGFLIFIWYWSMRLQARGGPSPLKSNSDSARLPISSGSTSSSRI

- binding: binds
B1: TGF-β receptor 1 (TGFBR1), found in the GPR56 immunoprecipitate by mass spectrometry (receptor, UniProt P36897 34-503)
chain: LQCFCHLCTKDNFTCVTDGLCFVSVTETTDKVIHNSMCIAEIDLIPRDRPFVCAPSSKTGSVTTTYCCNQDHCNKIELPTTVKSSPGLGPVELAAVIAGPVCFVCISLMLMVYICHNRTVIHHRVPNEEDPSLDRPFISEGTTLKDLIYDMTTSGSGSGLPLLVQRTIARTIVLQESIGKGRFGEVWRGKWRGEEVAVKIFSSREERSWFREAEIYQTVMLRHENILGFIAADNKDNGTWTQLWLVSDYHEHGSLFDYLNRYTVTVEGMIKLALSTASGLAHLHMEIVGTQGKPAIAHRDLKSKNILVKKNGTCCIADLGLAVRHDSATDTIDIAPNHRVGTKRYMAPEVLDDSINMKHFESFKRADIYAMGLVFWEIARRCSIGGIHEDYQLPYYDLVPSDPSVEEMRKVVCEQKLRPNIPNRWQSCEALRVMAKIMRECWYANGAARLTALRIKKTLSQLSQQEGIKM

— paper PMC11445230
